Data source: PubChem BioAssay AID1259323 (Peter MacCallum Cancer Centre, 2017)
Assay: 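Kinase siRNA screen linking the PAR2 receptor to the TRPV4 channel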 (primary screen). System: human HEK293 cells stably carrying inducible TRPV4. Reagent: siRNA pool against human genes. Treatment: PAR2 activation; agonist identity and dose not given. Measured: 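Signal of a calcium dye in live cells following PAR2 activation, plateau and early peak normalised to mock transfection on each plate, mean of duplicate plates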. Reading the numbers: TRPV4 plateau calcium, % of mock: higher = stronger sustained TRPV4 calcium entry than mock; PAR2 peak calcium, % of mock: higher = stronger early PAR2 calcium response than mock. Active means: 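Active if plateau calcium is under 90% of mock and early peak calcium stays over 79% of mock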.
Shown is an unselected part of 715 reagents. Of all reagents, 91 (13%) are marked active. 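Active pools lower the sustained TRPV4 phase but spare the early PAR2 peak; PAR2 agonist and dose are not stated; pools repeat across wells.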 Not stated in the record: the amount of reagent, the time to read-out.

Gene | TRPV4 plateau calcium, % of mock | PAR2 peak calcium, % of mock | activity call
AK3 (adenylate kinase 3) | 91.4 | 95.8 | inactive
MYLK2 (myosin light chain kinase 2) | 96.6 | 93.6 | inactive
PIK3CA | 103 | 98.8 | inactive
CDK13 (cyclin dependent kinase 13) | 96.9 | 97.9 | inactive
PRKAA2 (protein kinase AMP-activated catalytic subunit alpha 2) | 86.7 | 89.6 | active
IPPK (inositol-pentakisphosphate 2-kinase) | 114 | 103 | inactive
DDR2 (discoidin domain receptor tyrosine kinase 2) | 95.1 | 104 | inactive
TAB1 (TGF-beta activated kinase 1 (MAP3K7) binding protein 1) | 93.7 | 94.6 | inactive
AMHR2 (anti-Mullerian hormone receptor type 2) | 89.2 | 96.4 | active
MAPK11 (mitogen-activated protein kinase 11) | 99.9 | 101 | inactive
RIPK1 (receptor interacting serine/threonine kinase 1) | 99.5 | 93 | inactive
CAMK2A (calcium/calmodulin dependent protein kinase II alpha) | 101 | 98.2 | inactive
TSSK4 (testis specific serine kinase 4) | 102 | 101 | inactive
GRK3 (G protein-coupled receptor kinase 3) | 111 | 112 | inactive
AKT3 (AKT serine/threonine kinase 3) | 108 | 107 | inactive
DCK (deoxycytidine kinase) | 109 | 102 | inactive
ALPK1 (alpha kinase 1) | 99.8 | 98.1 | inactive
STK35 (serine/threonine kinase 35) | 98.5 | 101 | inactive
LIMK1 (LIM domain kinase 1) | 94.1 | 92.3 | inactive
DLG3 (discs large MAGUK scaffold protein 3) | 97.4 | 93.6 | inactive
ULK2 (unc-51 like autophagy activating kinase 2) | 100 | 92.8 | inactive
HSPB8 (heat shock protein family B (small) member 8) | 107 | 99.1 | inactive
PIK3R1 (phosphoinositide-3-kinase regulatory subunit 1) | 112 | 107 | inactive
MAP2K5 (mitogen-activated protein kinase kinase 5) | 104 | 107 | inactive
RBKS (ribokinase) | 94.9 | 96.2 | inactive
RIPK2 (receptor interacting serine/threonine kinase 2) | 81.5 | 83.8 | active
FGR (FGR proto-oncogene, Src family tyrosine kinase) | 124 | 111 | inactive
MAPK4 (mitogen-activated protein kinase 4) | 98.2 | 97.6 | inactive

8 entries already listed, ordered by “TRPV4 plateau calcium, % of mock”, descending:
Gene | TRPV4 plateau calcium, % of mock | PAR2 peak calcium, % of mock | activity call
PIK3R1 (phosphoinositide-3-kinase regulatory subunit 1) | 112 | 107 | inactive
HSPB8 (heat shock protein family B (small) member 8) | 107 | 99.1 | inactive
MAP2K5 (mitogen-activated protein kinase kinase 5) | 104 | 107 | inactive
ULK2 (unc-51 like autophagy activating kinase 2) | 100 | 92.8 | inactive
STK35 (serine/threonine kinase 35) | 98.5 | 101 | inactive
DLG3 (discs large MAGUK scaffold protein 3) | 97.4 | 93.6 | inactive
RBKS (ribokinase) | 94.9 | 96.2 | inactive
LIMK1 (LIM domain kinase 1) | 94.1 | 92.3 | inactive

Additional results follow.
Gene | TRPV4 plateau calcium, % of mock | PAR2 peak calcium, % of mock | activity call
SHPK (sedoheptulokinase) | 89.9 | 90.4 | active
EFNA4 (ephrin A4) | 96.1 | 91.3 | inactive
RIPK3 (receptor interacting serine/threonine kinase 3) | 90.7 | 96.1 | inactive
EIF2AK1 (eukaryotic translation initiation factor 2 alpha kinase 1) | 97.8 | 97.6 | inactive
PKMYT1 (protein kinase, membrane associated tyrosine/threonine 1) | 99.8 | 99.7 | inactive
PAPSS2 (3'-phosphoadenosine 5'-phosphosulfate synthase 2) | 91.9 | 87.6 | inactive
MAP3K19 (mitogen-activated protein kinase kinase kinase 19) | 113 | 107 | inactive
CDKN2D (cyclin dependent kinase inhibitor 2D) | 109 | 103 | inactive
MAGI3 | 85.4 | 89 | active
CDK15 (cyclin dependent kinase 15) | 89.3 | 88.9 | active
PXK (PX domain containing serine/threonine kinase like) | 92.3 | 98.9 | inactive
MAPK13 (mitogen-activated protein kinase 13) | 86.2 | 98.1 | active
PRKAG2 (protein kinase AMP-activated non-catalytic subunit gamma 2) | 94 | 95.1 | inactive
PRPS2 (phosphoribosyl pyrophosphate synthetase 2) | 99.4 | 99.6 | inactive
PIK3CG | 93.6 | 101 | inactive
RELA (RELA proto-oncogene, NF-kB subunit) | 98.6 | 96.4 | inactive
ATR (ATR checkpoint kinase) | 104 | 102 | inactive
N4BP2 (NEDD4 binding protein 2) | 95.4 | 98.5 | inactive
LYN (LYN proto-oncogene, Src family tyrosine kinase) | 100 | 102 | inactive
NME7 (NME/NM23 family member 7) | 102 | 101 | inactive
MAP3K4 (mitogen-activated protein kinase kinase kinase 4) | 96.7 | 93.5 | inactive
DCLK3 (doublecortin like kinase 3) | 96.7 | 95.5 | inactive
PLK3 (polo like kinase 3) | 92.8 | 94.9 | inactive
DGKB (diacylglycerol kinase beta) | 95 | 99.3 | inactive
SCYL1 (SCY1 like pseudokinase 1) | 101 | 99.3 | inactive
MARK2 (microtubule affinity regulating kinase 2) | 114 | 108 | inactive
ROR1 (ROR family WNT receptor 1) | 106 | 103 | inactive
NEK9 (NIMA related kinase 9) | 106 | 98.2 | inactive
EPHB3 (EPH receptor B3) | 98 | 101 | inactive
HK2 (hexokinase 2) | 82.3 | 91 | active
DLG1 (discs large MAGUK scaffold protein 1) | 108 | 100 | inactive
TGFBR1 (transforming growth factor beta receptor 1) | 104 | 98.1 | inactive
CDKL3 (cyclin dependent kinase like 3) | 104 | 96.5 | inactive
LATS1 (large tumor suppressor kinase 1) | 110 | 102 | inactive
TSKS (testis specific serine kinase substrate) | 95.3 | 96.3 | inactive
DMPK (DM1 protein kinase) | 109 | 100 | inactive
IRAK3 (interleukin 1 receptor associated kinase 3) | 99 | 96.9 | inactive
LCK (LCK proto-oncogene, Src family tyrosine kinase) | 107 | 97.2 | inactive
NUAK1 (NUAK family kinase 1) | 106 | 101 | inactive
TTK (TTK protein kinase) | 86.7 | 89.3 | active
PIM2 (Pim-2 proto-oncogene, serine/threonine kinase) | 97.9 | 98.8 | inactive
NEK8 (NIMA related kinase 8) | 86.1 | 74 | inactive
SIK1 (salt inducible kinase 1) | 103 | 98.6 | inactive
AKT1 (AKT serine/threonine kinase 1) | 118 | 115 | inactive
GAK (cyclin G associated kinase) | 106 | 102 | inactive
